Measured values as given in PubChem BioAssay AID493014 (National Center for Advancing Translational Sciences (NCATS), 2011).
The other results are listed elsewhere or left out. Shown are side measurements of this screen, not its main read-out; they come without a call. Most of these compounds were active or inconclusive in the main read-out, so they are no random draw. Potencies come from curve fits of mixed quality, noted in brackets.

Assay: qHTS Assay to Find Inhibitors of Chronic Active B-Cell Receptor Signaling
Conditions: ABC-DLBCL IkBa-CBG/CBR reporter, luminescence ratio (green luciferase fused to IkBa over red control in TMD8 lymphoma cells), 4 h
Method in brief: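 Doxycycline induced both beetle luciferases in TMD8 lymphoma cells; IKK-driven degradation limits the IkappaBalpha-fused green signal, while red luminescence normalises for cell number and nonspecific effects. Compounds tested up to 46 uM, 4 hrs.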

[1] = measured here: IkBa-CBG green luminescence
[2] = measured here: CBR red luminescence, cell number

| Structure (SMILES) | AC50 [1] | AC50 [2] |
| --- | --- | --- |
| CC1CCc2[nH]c3ccc(C(=O)N4CCCC(C(F)(F)F)C4)cc3c2C1 (configuration not stated) | 5.17 µM [rising, partial curve, poor fit] | – |
| CC(C)NC(=O)CSc1c2c(nc3ccccc13)CCCC2 | – | 6.31 µM [falling, partial curve] |
| CC1CCCCN1c1ncnc(N)c1[N+](=O)[O-] (configuration not stated) | – | 8.91 µM [falling, partial curve] |
| CCN(CC)S(=O)(=O)c1ccc(N2CCCCC2)c(NC(=O)c2ccncc2)c1 | – | 10 µM [falling, partial curve] |
| COc1cc(/C=N/NC(=O)c2ccncc2)ccc1OCC(=O)Nc1ccccc1 | – | 25.1 µM [falling, single point] |
| CCC(=O)Nc1c(C(=O)Nc2cccc(OC)c2)oc2ccccc12 | – | 2 µM [falling, full curve] |
| O=C(/C=C/c1ccc2c(c1)OCO2)Nc1ccc(Cl)cn1 | – | 3.55 µM [falling, full curve, poor fit] |
| CCOC(=O)c1cc2n(n1)C(C(F)(F)F)CC(C)N2 (configuration not stated) | – | 0.366 µM [rising, full curve, poor fit] |
| CCOC(=O)C1CCN(C(=O)COc2ccc(Cl)cc2C)CC1 | – | 16.4 µM [falling, partial curve] |
| COc1ccccc1-c1ccc(SCc2ccccc2F)nn1 | – | 7.08 µM [falling, partial curve] |
| Cc1ccc(-n2nc3c(=O)n(CCCC(=O)NCc4cccc(Cl)c4)nc(C)c3c2C)cc1 | – | 10 µM [falling, partial curve, poor fit] |
| CCc1cc2cc(C(=O)Nc3ccc(F)cc3)sc2s1 | – | 9.2 µM [falling, partial curve] |
| CCOC(=O)c1sc(N)c(C(=O)OC)c1C | – | 10 µM [rising, partial curve] |
| CN(Cc1ccc(F)cc1)C(=O)c1ccc(NC(=O)CC2SC(N3CCCC3)=NC2=O)cc1 (configuration not stated) | – | 29.1 µM [rising, single point] |
| COCCN(Cc1ccccc1)C(=O)c1cccc(S(=O)(=O)N2CCCc3ccccc32)c1 | – | 29.1 µM [falling, single point] |
| CCCC[n+]1ccc(-c2nc3ccc([N+](=O)[O-])cc3[nH]2)cc1 | – | 18.4 µM [falling, single point] |
| CN1CCN(c2nc(-c3ccccc3)c3cc(Cl)ccc3n2)CC1 | – | 7.08 µM [falling, partial curve, poor fit] |
| Cc1ccc(C(=O)Nc2nc3ccccc3n2CCN2CCCC2)cc1 | – | 22.4 µM [falling, single point] |
| COc1ccc2c(Cl)c(C(=O)NC3CCS(=O)(=O)C3)sc2c1 (configuration not stated) | – | 20 µM [rising, partial curve, poor fit] |
| O=[N+]([O-])c1ccc(NC(=S)NCCc2ccccc2)cc1 | – | 2.31 µM [rising, partial curve, poor fit] |
| Cc1ccc(NC(=O)c2ccc(C)c(S(=O)(=O)N3CCCCCC3)c2)cc1 | – | 35.5 µM [falling, single point] |

Gathered by group, those above with a Cl atom

| Structure (SMILES) | AC50 [1] | AC50 [2] |
| --- | --- | --- |
| O=C(/C=C/c1ccc2c(c1)OCO2)Nc1ccc(Cl)cn1 | – | 3.55 µM [falling, full curve, poor fit] |
| CCOC(=O)C1CCN(C(=O)COc2ccc(Cl)cc2C)CC1 | – | 16.4 µM [falling, partial curve] |
| Cc1ccc(-n2nc3c(=O)n(CCCC(=O)NCc4cccc(Cl)c4)nc(C)c3c2C)cc1 | – | 10 µM [falling, partial curve, poor fit] |
| CN1CCN(c2nc(-c3ccccc3)c3cc(Cl)ccc3n2)CC1 | – | 7.08 µM [falling, partial curve, poor fit] |
| COc1ccc2c(Cl)c(C(=O)NC3CCS(=O)(=O)C3)sc2c1 (configuration not stated) | – | 20 µM [rising, partial curve, poor fit] |

Further records.

| Structure (SMILES) | AC50 [1] | AC50 [2] |
| --- | --- | --- |
| COCc1cc(=O)n2[nH]c(-c3ccsc3-n3c(C)ccc3C)cc2n1 | – | 0.731 µM [rising, full curve, poor fit] |
| COc1cccc(-c2nc(CS(=O)(=O)CC(=O)Nc3ccc(F)cc3F)c(C)o2)c1 | – | 22.4 µM [falling, single point] |
| CC(=O)CC(=O)Nc1ccccc1NC(C)=O | – | 6.51 µM [rising, single point] |
| O=C(CC1Sc2ccccc2NC1=O)Nc1cccc(C(F)(F)F)c1 (configuration not stated) | – | 7.94 µM [rising, partial curve] |
| Cc1cccc(-c2cccc(NC(=O)C3CCCN(C(=O)c4csc(C)n4)C3)c2)c1 (configuration not stated) | – | 31.6 µM [falling, single point] |
| COCCn1c(C(F)(F)F)ccc(NC(=O)c2ccccc2)c1=O | – | 0.112 µM [rising, full curve, poor fit] |
| CCOC(=O)c1cnc(SCC(=O)Nc2cc(OC)cc(OC)c2)nc1N | – | 35.5 µM [falling, single point] |
| O=C(CSc1nc2ccccc2c(=O)n1C1CC1)NCc1ccccc1 | – | 5.62 µM [falling, partial curve, poor fit] |
| CC(C)Nc1ncnc2c1cnn2-c1ccccc1 | – | 9.2 µM [falling, partial curve] |
| CCCOc1ccccc1-c1nc(SCCC(=O)O)n[nH]1 | – | 11.6 µM [falling, partial curve, poor fit] |
| Nc1nc(N)nc(-c2cc(F)ccc2O)n1 | 4.11 µM [rising, partial curve, poor fit] | – |
| CCc1ccc(-c2ccc(SCC(=O)Nc3nnc(C)s3)nn2)cc1 | – | 2.82 µM [falling, full curve] |
| CCOC(=O)c1c(C)n(C)c2ccc(OC)c(NC(=O)CN3CCN(Cc4ccccc4)CC3)c12 | – | 0.708 µM [rising, full curve, poor fit] |
| CCO[C@@H]1OC(C(N)=O)=C[C@H](c2coc3ccccc3c2=O)[C@H]1CCCO | – | 12.6 µM [rising, single point] |
| CCOC(=O)C(=CNNc1ccsc1C(=O)OC)C(=O)OCC | – | 17.8 µM [falling, single point] |
| CN(C)c1nc(SCCOC(=O)c2ccccc2)nc(N(C)C)n1 | – | 2.91 µM [rising, full curve, poor fit] |
| Oc1ccc(/C=N/N=C/c2ccc(O)cc2)cc1 | – | 1.12 µM [falling, partial curve, poor fit] |
| O=C(NC(=S)Nc1cc(C(F)(F)F)ccc1N1CCOCC1)c1sc2ccccc2c1Cl | – | 18.4 µM [falling, single point] |
| COc1ccccc1C(=O)COC(=O)/C=C/c1ccccc1 | – | 15.8 µM [falling, single point] |
| Cn1c(=O)c2[nH]c(-c3ccccc3Cl)c(O)c2n(C)c1=O | – | 3.66 µM [falling, single point] |
| Cc1cc2nc(-c3ccc(SCC(=O)Nc4ccc(S(=O)(=O)N5CCCC5)cc4)nc3)[nH]c2cc1C | – | 1.03 µM [falling, full curve] |
